PubChem BioAssay AID1053208 | Peter MacCallum Cancer Centre | 2014

Screen: 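Genes whose silencing cuts survival of bone tumour cells only with doxorubicin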 (primary screen)
Cell system: mouse osteosarcoma cells, early-passage culture from an engineered mouse model of fibroblastic bone tumour
Reagent: siRNA pool against mouse genes, 40 nM
Duration: about 120 h (48 h before drug, then 72 h with drug)
Conditions: doxorubicin 100 nM for 72 h, roughly 30-40% inhibitory dose
Detection: 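Luminescent ATP signal taken as viability with or without 100 nM doxorubicin for 72 h; mean of two wells set against non-targeting siRNA and turned into robust z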
Scale: viability z-score with doxorubicin: higher = more viable cells under doxorubicin; viability z-score without drug: higher = more viable cells with knock-down alone
Hit rule: 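a pool counts as active when its viability z-score with doxorubicin is -2 or below and its z-score without drug lies between -2 and 2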
Here is an unselected part of about 17,000 deposited reagents. 788 of all reagents (4.7%) count as active. 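Calls rest on z-score classes alone; an extra cut-off of viability at most 70% of control was not applied to them.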 A number with no mark means an inactive call. Further read-outs or replicates are left out here.

| gene symbol | combined z-score class | viability z-score with doxorubicin | viability z-score without drug |
| --- | --- | --- | --- |
| Mief1 | no change with or without drug | -0.45 | 0 |
| Crygs | no change with or without drug | 1.46 | 1.52 |
| Gstz1 | no change with or without drug | -1.46 | -0.84 |
| Cfap65 | no change with or without drug | 0.22 | 0.67 |
| Dicer1 | no change with or without drug | 0.9 | 0.51 |
| Ccdc32 | no change with or without drug | -0.9 | -1.01 |
| Btla | no change with or without drug | -0.45 | 0.51 |
| Tmbim7 | no change with or without drug | 0.22 | -0.17 |
| Man2b1 | no change with or without drug | 0.45 | 0.84 |
| Or1o3 | low cell count with doxorubicin only (active) | -2.14 | -0.51 |
| Nedd9 | low cell count with doxorubicin only (active) | -2.02 | -0.51 |

Continued (2 carried over from the part before).
| gene symbol | combined z-score class | viability z-score with doxorubicin | viability z-score without drug |
| --- | --- | --- | --- |
| Or1o3 | low cell count with doxorubicin only (active) | -2.14 | -0.51 |
| Nedd9 | low cell count with doxorubicin only (active) | -2.02 | -0.51 |
| Rpl7a | low cell count with and without drug | -7.19 | -6.24 |
| Or5h19 | no change with or without drug | 0.22 | 0.34 |
| Ly6c1 | no change with or without drug | 0.56 | -0.51 |
| Tcf15 | no change with or without drug | -0.67 | 1.18 |
| Cdk5r2 | high cell count with doxorubicin only | 2.02 | 0.51 |
| Pdxk | no change with or without drug | -0.34 | -1.52 |
| Rsbn1 | no change with or without drug | 0.45 | 1.52 |
| Dars2 | no change with or without drug | -0.56 | -0.51 |
| Pigs | no change with or without drug | 0.22 | 1.85 |
